In the supplement of paper PMC10849652:
Some of the results follow.

Amino acid sequences for entries named in this document (tags omitted). A change or cut given only in a name is not applied to a line headed by its entry.
UniProt P49748: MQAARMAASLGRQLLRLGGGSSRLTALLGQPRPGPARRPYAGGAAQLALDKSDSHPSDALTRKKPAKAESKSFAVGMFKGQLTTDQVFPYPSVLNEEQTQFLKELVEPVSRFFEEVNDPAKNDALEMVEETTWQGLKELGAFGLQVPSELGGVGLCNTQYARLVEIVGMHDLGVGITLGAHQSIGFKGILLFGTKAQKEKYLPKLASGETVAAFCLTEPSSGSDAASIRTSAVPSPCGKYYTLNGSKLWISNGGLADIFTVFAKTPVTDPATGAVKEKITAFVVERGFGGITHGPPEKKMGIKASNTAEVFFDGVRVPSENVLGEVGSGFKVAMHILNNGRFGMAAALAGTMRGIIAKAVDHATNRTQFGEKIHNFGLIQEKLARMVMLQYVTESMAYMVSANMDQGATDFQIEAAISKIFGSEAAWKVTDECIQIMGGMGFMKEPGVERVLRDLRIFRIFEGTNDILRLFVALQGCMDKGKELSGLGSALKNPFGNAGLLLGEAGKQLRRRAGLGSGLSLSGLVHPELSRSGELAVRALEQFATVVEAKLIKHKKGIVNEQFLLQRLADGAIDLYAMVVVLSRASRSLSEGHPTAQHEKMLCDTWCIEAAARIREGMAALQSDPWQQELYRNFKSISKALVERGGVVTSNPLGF
UniProt Q15057: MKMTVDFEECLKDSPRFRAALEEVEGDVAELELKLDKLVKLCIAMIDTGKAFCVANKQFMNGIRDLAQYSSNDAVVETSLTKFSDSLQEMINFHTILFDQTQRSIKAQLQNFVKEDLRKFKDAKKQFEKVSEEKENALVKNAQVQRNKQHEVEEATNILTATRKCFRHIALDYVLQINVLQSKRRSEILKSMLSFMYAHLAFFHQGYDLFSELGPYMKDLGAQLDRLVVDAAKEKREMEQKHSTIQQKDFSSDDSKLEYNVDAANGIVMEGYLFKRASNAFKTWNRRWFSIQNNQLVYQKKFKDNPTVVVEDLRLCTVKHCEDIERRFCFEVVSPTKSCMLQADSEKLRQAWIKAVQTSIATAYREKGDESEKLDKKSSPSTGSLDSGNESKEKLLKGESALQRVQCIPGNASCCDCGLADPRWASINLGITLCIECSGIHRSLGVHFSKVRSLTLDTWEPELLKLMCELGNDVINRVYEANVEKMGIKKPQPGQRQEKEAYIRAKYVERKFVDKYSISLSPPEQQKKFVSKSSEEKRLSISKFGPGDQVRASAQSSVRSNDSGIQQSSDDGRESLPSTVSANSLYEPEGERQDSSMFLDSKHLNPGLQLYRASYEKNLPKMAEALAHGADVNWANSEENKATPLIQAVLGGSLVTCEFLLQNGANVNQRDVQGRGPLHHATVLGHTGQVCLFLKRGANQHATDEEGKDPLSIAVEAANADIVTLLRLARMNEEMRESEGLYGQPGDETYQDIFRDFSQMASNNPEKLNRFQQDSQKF
UniProt P33121: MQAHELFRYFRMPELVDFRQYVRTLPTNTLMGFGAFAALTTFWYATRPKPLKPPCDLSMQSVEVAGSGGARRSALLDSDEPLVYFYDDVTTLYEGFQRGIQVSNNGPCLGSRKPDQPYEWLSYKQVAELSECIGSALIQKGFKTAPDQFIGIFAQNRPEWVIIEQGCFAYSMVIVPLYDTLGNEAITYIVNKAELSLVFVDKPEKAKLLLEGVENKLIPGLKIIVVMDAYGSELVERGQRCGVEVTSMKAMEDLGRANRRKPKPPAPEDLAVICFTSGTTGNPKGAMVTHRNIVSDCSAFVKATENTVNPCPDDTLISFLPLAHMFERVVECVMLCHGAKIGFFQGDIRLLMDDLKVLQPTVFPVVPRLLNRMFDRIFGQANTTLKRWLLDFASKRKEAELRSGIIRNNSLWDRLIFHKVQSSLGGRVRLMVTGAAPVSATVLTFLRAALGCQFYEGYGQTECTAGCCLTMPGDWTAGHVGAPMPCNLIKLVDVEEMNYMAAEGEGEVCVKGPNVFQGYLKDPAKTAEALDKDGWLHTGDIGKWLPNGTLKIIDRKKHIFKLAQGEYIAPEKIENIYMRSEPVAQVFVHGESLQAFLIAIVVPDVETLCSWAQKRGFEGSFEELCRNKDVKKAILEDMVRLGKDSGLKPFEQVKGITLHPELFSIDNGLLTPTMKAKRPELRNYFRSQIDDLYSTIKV
UniProt Q9NRG9: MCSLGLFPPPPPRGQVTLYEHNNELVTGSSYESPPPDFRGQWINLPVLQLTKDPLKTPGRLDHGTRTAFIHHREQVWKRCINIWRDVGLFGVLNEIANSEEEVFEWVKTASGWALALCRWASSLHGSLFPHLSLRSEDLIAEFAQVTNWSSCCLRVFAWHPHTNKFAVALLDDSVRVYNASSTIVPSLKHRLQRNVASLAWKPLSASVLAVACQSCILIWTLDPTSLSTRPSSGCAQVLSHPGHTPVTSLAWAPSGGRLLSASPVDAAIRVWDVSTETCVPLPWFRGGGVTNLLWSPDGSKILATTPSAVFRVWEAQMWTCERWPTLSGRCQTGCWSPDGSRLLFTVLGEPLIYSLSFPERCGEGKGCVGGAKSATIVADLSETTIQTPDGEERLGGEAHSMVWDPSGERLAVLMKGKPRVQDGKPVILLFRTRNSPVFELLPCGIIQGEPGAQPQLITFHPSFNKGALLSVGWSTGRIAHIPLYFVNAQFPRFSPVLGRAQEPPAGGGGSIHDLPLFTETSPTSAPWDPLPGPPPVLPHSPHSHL
UniProt O94911: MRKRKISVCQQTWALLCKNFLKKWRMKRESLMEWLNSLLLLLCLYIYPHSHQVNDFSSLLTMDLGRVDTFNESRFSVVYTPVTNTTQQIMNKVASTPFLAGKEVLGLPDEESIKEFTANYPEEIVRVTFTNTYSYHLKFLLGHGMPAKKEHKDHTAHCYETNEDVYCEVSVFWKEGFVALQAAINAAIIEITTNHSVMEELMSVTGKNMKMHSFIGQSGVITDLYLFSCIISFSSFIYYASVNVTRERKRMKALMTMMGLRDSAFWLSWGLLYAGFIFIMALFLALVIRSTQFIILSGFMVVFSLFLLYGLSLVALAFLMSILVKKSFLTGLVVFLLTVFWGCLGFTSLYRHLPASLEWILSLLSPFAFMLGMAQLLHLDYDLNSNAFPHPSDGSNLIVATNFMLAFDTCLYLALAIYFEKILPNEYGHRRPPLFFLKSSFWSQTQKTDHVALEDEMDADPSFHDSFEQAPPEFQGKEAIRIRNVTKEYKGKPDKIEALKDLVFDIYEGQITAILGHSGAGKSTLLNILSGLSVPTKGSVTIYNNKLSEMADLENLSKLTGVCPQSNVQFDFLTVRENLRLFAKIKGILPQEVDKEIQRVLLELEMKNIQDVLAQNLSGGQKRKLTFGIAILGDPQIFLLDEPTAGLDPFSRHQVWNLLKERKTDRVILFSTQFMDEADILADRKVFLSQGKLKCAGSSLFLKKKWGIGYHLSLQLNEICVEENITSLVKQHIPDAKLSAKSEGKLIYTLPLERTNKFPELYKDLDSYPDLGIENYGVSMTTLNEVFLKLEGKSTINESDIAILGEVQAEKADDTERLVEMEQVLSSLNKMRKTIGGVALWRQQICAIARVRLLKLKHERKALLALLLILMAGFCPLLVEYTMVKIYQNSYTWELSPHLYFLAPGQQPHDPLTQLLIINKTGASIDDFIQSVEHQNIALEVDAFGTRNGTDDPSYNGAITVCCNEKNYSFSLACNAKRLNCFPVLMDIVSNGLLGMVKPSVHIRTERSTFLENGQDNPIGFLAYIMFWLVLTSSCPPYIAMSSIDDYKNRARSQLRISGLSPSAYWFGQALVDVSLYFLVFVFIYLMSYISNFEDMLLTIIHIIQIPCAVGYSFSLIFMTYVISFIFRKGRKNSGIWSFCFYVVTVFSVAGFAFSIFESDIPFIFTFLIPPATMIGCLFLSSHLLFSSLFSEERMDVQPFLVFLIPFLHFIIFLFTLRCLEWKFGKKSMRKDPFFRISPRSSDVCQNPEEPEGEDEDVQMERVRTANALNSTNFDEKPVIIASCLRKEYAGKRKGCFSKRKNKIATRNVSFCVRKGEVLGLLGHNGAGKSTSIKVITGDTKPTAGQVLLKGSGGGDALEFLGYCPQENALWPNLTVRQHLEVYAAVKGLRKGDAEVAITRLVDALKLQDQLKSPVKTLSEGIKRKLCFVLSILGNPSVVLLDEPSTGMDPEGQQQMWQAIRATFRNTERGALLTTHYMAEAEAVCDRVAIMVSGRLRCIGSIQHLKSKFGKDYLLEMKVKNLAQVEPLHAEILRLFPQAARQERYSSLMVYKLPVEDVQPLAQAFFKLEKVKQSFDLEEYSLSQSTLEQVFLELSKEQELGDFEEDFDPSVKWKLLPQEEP
UniProt Q9BR61: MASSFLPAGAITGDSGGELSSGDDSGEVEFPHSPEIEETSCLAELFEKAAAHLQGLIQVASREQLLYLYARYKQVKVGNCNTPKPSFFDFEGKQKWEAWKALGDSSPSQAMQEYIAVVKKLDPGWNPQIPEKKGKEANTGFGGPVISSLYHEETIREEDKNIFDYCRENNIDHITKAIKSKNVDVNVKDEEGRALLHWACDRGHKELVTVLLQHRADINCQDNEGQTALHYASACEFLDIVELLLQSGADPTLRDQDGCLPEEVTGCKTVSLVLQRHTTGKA
UniProt Q13685: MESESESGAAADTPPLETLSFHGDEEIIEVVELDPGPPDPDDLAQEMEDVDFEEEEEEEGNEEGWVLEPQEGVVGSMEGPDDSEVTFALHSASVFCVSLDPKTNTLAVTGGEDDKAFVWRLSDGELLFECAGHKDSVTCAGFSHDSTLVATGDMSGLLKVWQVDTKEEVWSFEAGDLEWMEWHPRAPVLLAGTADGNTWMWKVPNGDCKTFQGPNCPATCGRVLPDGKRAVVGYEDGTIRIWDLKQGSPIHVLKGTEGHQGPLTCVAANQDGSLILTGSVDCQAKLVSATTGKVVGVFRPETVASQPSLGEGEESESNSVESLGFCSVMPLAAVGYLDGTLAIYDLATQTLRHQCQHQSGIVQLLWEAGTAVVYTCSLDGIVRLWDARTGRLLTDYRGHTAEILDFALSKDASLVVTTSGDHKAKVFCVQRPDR
UniProt Q9UKV3: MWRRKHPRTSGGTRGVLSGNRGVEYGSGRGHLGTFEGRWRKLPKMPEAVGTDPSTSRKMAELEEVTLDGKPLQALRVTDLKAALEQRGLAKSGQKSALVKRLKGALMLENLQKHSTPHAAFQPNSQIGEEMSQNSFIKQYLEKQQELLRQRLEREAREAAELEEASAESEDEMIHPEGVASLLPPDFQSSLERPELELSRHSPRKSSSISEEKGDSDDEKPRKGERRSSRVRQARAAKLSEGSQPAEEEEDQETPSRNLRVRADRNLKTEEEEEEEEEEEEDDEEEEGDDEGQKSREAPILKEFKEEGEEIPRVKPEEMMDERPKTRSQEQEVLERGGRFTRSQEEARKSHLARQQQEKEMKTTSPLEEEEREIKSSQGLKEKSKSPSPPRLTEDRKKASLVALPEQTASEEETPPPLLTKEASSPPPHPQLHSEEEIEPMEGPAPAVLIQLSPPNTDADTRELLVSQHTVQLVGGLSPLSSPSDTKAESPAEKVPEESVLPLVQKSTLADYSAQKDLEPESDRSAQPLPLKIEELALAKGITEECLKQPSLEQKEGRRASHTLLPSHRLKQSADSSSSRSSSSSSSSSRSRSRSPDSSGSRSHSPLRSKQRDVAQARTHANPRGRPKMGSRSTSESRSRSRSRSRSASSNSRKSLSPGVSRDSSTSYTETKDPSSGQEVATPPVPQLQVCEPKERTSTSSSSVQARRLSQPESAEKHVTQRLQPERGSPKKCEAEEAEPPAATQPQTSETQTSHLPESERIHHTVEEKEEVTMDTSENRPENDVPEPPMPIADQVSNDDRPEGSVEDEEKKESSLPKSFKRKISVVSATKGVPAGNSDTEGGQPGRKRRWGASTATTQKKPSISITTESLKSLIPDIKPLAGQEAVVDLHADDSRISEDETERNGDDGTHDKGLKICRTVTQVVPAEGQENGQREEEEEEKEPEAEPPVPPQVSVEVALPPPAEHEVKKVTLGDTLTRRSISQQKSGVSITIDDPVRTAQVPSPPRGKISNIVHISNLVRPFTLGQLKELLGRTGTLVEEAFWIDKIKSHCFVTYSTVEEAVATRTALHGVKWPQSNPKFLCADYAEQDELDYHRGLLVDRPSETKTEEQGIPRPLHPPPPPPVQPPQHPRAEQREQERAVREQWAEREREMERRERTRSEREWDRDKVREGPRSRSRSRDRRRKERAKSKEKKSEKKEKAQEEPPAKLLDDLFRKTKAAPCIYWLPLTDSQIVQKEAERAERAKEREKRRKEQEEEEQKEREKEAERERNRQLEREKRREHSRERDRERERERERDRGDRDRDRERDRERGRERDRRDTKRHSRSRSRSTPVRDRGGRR

What was measured:
Test in all cases: log2 fold change, soluble protein after heating vs DMSO (PISA); higher = thermal stabilisation; K562 cells, 10 uM, 30 min; active = over 0.2 and 3.5 SD of the protein, either way, in both replicates (recomputed)
bafetinib = compound: Cc1ccc(NC(=O)c2ccc(CN3CC[C@H](N(C)C)C3)c(C(F)(F)F)c2)cc1Nc1nccc(-c2cncnc2)n1 [bafetinib]
How it was run: (§1)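 K562 cells at 2×10^6 cells/mL were exposed to 10 μM compound for 30 min, then aliquots were heated for 3 min across 48°C-58°C, pooled, and extracted in PBS containing 0.5% NP-40 at 4°C. The supernatant after 21,000xg for 90 min was taken as soluble protein and measured by TMTpro 16plex LC-MS/MS with channel sums equalised. Thermal stability is reported relative to control samples, with values from duplicates. Fold changes are given on a log2 scale.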

[1] = compound: Cc1cccc(CC(=O)N2CCc3c2ccc(-c2cn(C)c4ncnc(N)c24)c3F)n1
How it was run: as §1

nilotinib = compound: Cc1cn(-c2cc(NC(=O)c3ccc(C)c(Nc4nccc(-c5cccnc5)n4)c3)cc(C(F)(F)F)c2)cn1 [nilotinib]
How it was run: as §1

[2] = compound: Cc1nc(Nc2n[nH]c3c2CN(C(=O)N[C@H](CN(C)C)c2ccccc2)C3(C)C)c2sccc2n1
How it was run: as §1

dasatinib = compound: Cc1nc(Nc2ncc(C(=O)Nc3c(C)cccc3Cl)s2)cc(N2CCN(CCO)CC2)n1 [dasatinib]
How it was run: as §1

[3] = compound: Cc1ncc(-c2ccnc(Nc3ccc(S(C)(=O)=O)cc3)n2)n1C(C)C
How it was run: as §1

[4] = compound: Cn1cc(-c2ccc3c(c2)CCN3C(=O)Cc2cccc(C(F)(F)F)c2)c2c(N)ncnc21
How it was run: as §1

[5] = compound: Cn1cc(-c2ccc3nnc(C(F)(F)c4ccc5ncccc5c4)n3n2)cn1
How it was run: as §1

tipifarnib = compound: Cn1cncc1[C@@](N)(c1ccc(Cl)cc1)c1ccc2c(c1)c(-c1cccc(Cl)c1)cc(=O)n2C [tipifarnib]
How it was run: as §1

mubritinib = compound: FC(F)(F)c1ccc(/C=C/c2nc(COc3ccc(CCCCn4ccnn4)cc3)co2)cc1 [mubritinib]
How it was run: as §1

[6] = compound: NC(=O)Nc1cc(-c2cccc(F)c2)sc1C(=O)N[C@H]1CCCNC1
How it was run: as §1

[7] = compound: NC(=O)c1cnc(N[C@@H]2CCCC[C@@H]2N)nc1Nc1cccc(-n2nccn2)c1
How it was run: as §1

[8] = compound: NC1(c2ccc(-c3nc4ccn5c(=O)[nH]nc5c4cc3-c3ccccc3)cc2)CCC1
How it was run: as §1

[9] = compound: NCC(=O)Nc1ccc(-n2nc(C(F)(F)F)cc2-c2ccc3c(ccc4ccccc43)c2)cc1
How it was run: as §1

entinostat = compound: Nc1ccccc1NC(=O)c1ccc(CNC(=O)OCc2cccnc2)cc1 [entinostat]
How it was run: as §1

vorinostat = compound: O=C(CCCCCCC(=O)Nc1ccccc1)NO [vorinostat]
How it was run: as §1

citarinostat = compound: O=C(CCCCCCNC(=O)c1cnc(N(c2ccccc2)c2ccccc2Cl)nc1)NO [citarinostat]
How it was run: as §1

silmitasertib = compound: O=C(O)c1ccc2c(c1)nc(Nc1cccc(Cl)c1)c1ccncc12 [silmitasertib]
How it was run: as §1

[10] = compound: O=C1NC(=O)C(c2cnc3ccccn23)=C1c1cn2c3c(cc(F)cc13)CN(C(=O)N1CCCCC1)CC2
How it was run: as §1

[11] = compound: c1cc(OCCN2CCCCC2)cc(-c2n[nH]c3ccc(-c4nnc[nH]4)cc23)c1
How it was run: as §1

| Target | log2 fold change (bafetinib) | log2 fold change [1] | log2 fold change (nilotinib) | log2 fold change [2] | log2 fold change (dasatinib) | log2 fold change [3] | log2 fold change [4] | log2 fold change [5] | log2 fold change (tipifarnib) | log2 fold change (mubritinib) | log2 fold change [6] | log2 fold change [7] | log2 fold change [8] | log2 fold change [9] | log2 fold change (entinostat) | log2 fold change (vorinostat) | log2 fold change (citarinostat) | log2 fold change (silmitasertib) | log2 fold change [10] | log2 fold change [11] |
| --- | --- | --- | --- | --- | --- | --- | --- | --- | --- | --- | --- | --- | --- | --- | --- | --- | --- | --- | --- | --- |
| ABCF3 (UniProt Q9NUQ8) | inactive: 0.124 | inactive: 0.234 | inactive: -0.084 | inactive: -0.115 | inactive: 0.053 | inactive: -0.061 | inactive: -0.147 | inactive: -0.072 | inactive: -0.013 | inactive: -0.18 | inactive: -0.027 | inactive: -0.055 | inactive: 0.187 | inactive: 0.054 | inactive: 0.083 | inactive: -0.16 | inactive: -0.071 | inactive: 0.232 | inactive: 0.3 | inactive: 0.125 |
| ACADVL isoform 3 (UniProt P49748) | inactive: -0.093 | inactive: 0 | inactive: 0.032 | inactive: 0.02 | inactive: -0.016 | inactive: -0.007 | inactive: 0.022 | inactive: 0.026 | inactive: -0.01 | inactive: 0.071 | inactive: -0.025 | inactive: -0.036 | inactive: -0.021 | inactive: -0.032 | inactive: 0 | inactive: -0.019 | inactive: 0.043 | inactive: -0.015 | inactive: -0.014 | inactive: -0.028 |
| ACTR1A (UniProt P61163) | inactive: -0.029 | inactive: -0.05 | inactive: -0.018 | inactive: -0.004 | inactive: -0.027 | inactive: 0.005 | inactive: 0.003 | inactive: 0.026 | inactive: 0.044 | inactive: 0.013 | inactive: -0.009 | inactive: -0.013 | inactive: -0.021 | inactive: 0.015 | inactive: 0.004 | inactive: -0.03 | inactive: 0.013 | inactive: 0.025 | inactive: -0.018 | inactive: -0.05 |
| ACAP2 (UniProt Q15057) | inactive: 0.093 | inactive: 0.052 | inactive: -0.006 | inactive: -0.05 | inactive: -0.04 | inactive: 0.051 | inactive: -0.073 | inactive: -0.051 | inactive: -0.097 | inactive: 0.016 | inactive: -0.016 | inactive: -0.075 | inactive: 0.026 | inactive: -0.035 | inactive: 0.005 | inactive: 0 | inactive: 0.029 | inactive: -0.007 | inactive: -0.078 | inactive: 0.045 |
| ABCE1 (UniProt P61221) | inactive: -0.005 | inactive: -0.021 | inactive: 0.023 | inactive: 0.027 | inactive: 0.043 | inactive: 0.006 | inactive: 0.001 | inactive: 0.005 | inactive: -0.002 | inactive: 0.023 | inactive: 0.045 | inactive: 0.03 | inactive: -0.02 | inactive: -0.01 | inactive: 0.017 | inactive: -0.026 | inactive: 0.01 | inactive: -0.007 | inactive: -0.03 | inactive: 0.009 |
| ABCC5 (UniProt O15440) | inactive: -0.027 | inactive: 0.068 | inactive: -0.21 | active: -0.219 | inactive: -0.035 | inactive: -0.015 | inactive: 0.017 | inactive: 0.053 | inactive: -0.009 | inactive: 0.124 | inactive: 0.016 | inactive: 0.088 | inactive: -0.038 | inactive: -0.005 | inactive: -0.017 | inactive: 0.001 | inactive: 0.114 | inactive: 0.008 | inactive: -0.082 | inactive: 0.12 |
| ABI2 (UniProt Q9NYB9) | inactive: -0.067 | inactive: -0.022 | inactive: 0.059 | inactive: -0.059 | inactive: -0.103 | inactive: -0.023 | inactive: 0.042 | inactive: -0.013 | inactive: 0.025 | inactive: 0.07 | inactive: -0.094 | inactive: -0.064 | inactive: -0.112 | inactive: -0.124 | inactive: 0.035 | inactive: 0.07 | inactive: -0.014 | inactive: -0.028 | inactive: -0.077 | inactive: -0.051 |
| ACSL1 (UniProt P33121) | inactive: -0.178 | inactive: -0.004 | inactive: -0.003 | inactive: -0.07 | inactive: -0.076 | inactive: -0.013 | inactive: 0.027 | inactive: 0.024 | inactive: -0.015 | inactive: -0.009 | inactive: -0.058 | inactive: -0.015 | inactive: -0.091 | inactive: -0.003 | inactive: -0.034 | inactive: 0.004 | inactive: 0.071 | inactive: 0.029 | inactive: -0.038 | inactive: -0.022 |
| ACAT2 (UniProt Q9BWD1) | inactive: -0.019 | inactive: -0.037 | inactive: 0.036 | inactive: 0.006 | inactive: 0.048 | inactive: -0.014 | inactive: 0.028 | inactive: -0.001 | inactive: -0.079 | inactive: 0.03 | inactive: 0.016 | inactive: 0.037 | inactive: 0.092 | inactive: 0.047 | inactive: -0.038 | inactive: 0.021 | inactive: -0.032 | inactive: -0.052 | inactive: -0.034 | inactive: 0.016 |
| AAAS (UniProt Q9NRG9) | inactive: -0.043 | inactive: 0.023 | inactive: 0.04 | inactive: -0.011 | inactive: -0.029 | inactive: -0.027 | inactive: 0.046 | inactive: -0.018 | inactive: -0.003 | inactive: 0.017 | inactive: 0.013 | inactive: 0.007 | inactive: -0.017 | inactive: -0.021 | inactive: -0.038 | inactive: 0.034 | inactive: 0.029 | inactive: -0.011 | inactive: 0.002 | inactive: 0.026 |
| ABCA8 isoform 3 (UniProt O94911) | inactive: -0.093 | – | – | – | – | – | – | – | – | – | – | – | – | – | – | – | – | – | – | – |
| ACBD6 (UniProt Q9BR61) | inactive: -0.058 | inactive: 0.063 | inactive: 0.017 | inactive: -0.085 | inactive: -0.23 | inactive: 0.057 | inactive: -0.053 | inactive: 0.056 | inactive: -0.072 | inactive: -0.085 | inactive: -0.089 | inactive: -0.077 | inactive: -0.006 | inactive: 0.001 | inactive: -0.048 | inactive: 0.086 | inactive: 0.084 | inactive: 0.134 | inactive: 0.022 | inactive: 0.271 |
| AAMP (UniProt Q13685) | inactive: 0.011 | inactive: 0.014 | inactive: 0.009 | inactive: 0.005 | inactive: 0.04 | inactive: 0.012 | inactive: -0.038 | inactive: -0.028 | inactive: -0.026 | inactive: 0.02 | inactive: -0.006 | inactive: -0.05 | inactive: -0.005 | inactive: -0.018 | inactive: -0.055 | inactive: 0.015 | inactive: -0.026 | inactive: 0.061 | inactive: 0.059 | inactive: -0.013 |
| ADA (UniProt P00813) | inactive: -0.055 | inactive: -0.123 | inactive: 0.047 | inactive: -0.016 | inactive: -0.028 | inactive: 0.012 | inactive: 0.059 | inactive: 0.092 | inactive: 0.051 | inactive: 0.077 | inactive: -0.002 | inactive: -0.057 | inactive: -0.032 | inactive: -0.046 | inactive: 0.016 | inactive: 0.027 | inactive: 0.029 | inactive: -0.066 | inactive: -0.047 | inactive: 0.044 |
| ABCC4 (UniProt O15439) | inactive: 0.008 | inactive: -0.003 | inactive: 0.034 | inactive: 0.001 | inactive: 0.029 | inactive: -0.004 | inactive: 0.006 | inactive: 0.02 | inactive: -0.002 | inactive: 0.034 | inactive: -0.057 | inactive: 0.019 | inactive: 0.02 | inactive: 0.002 | inactive: -0.059 | inactive: -0.017 | inactive: 0.032 | inactive: 0.022 | inactive: -0.002 | inactive: -0.04 |
| ACAT1 (UniProt P24752) | inactive: 0.01 | inactive: -0.03 | inactive: -0.054 | inactive: -0.035 | inactive: 0.007 | inactive: -0.071 | inactive: -0.05 | inactive: 0.022 | inactive: -0.03 | inactive: 0.02 | inactive: 0.012 | inactive: -0.031 | inactive: -0.039 | inactive: -0.043 | inactive: -0.009 | inactive: -0.039 | inactive: 0 | inactive: -0.044 | inactive: -0.029 | inactive: -0.023 |
| ACIN1 (UniProt Q9UKV3) | inactive: 0.022 | inactive: -0.037 | inactive: 0.086 | active: -0.444 | inactive: 0.016 | inactive: -0.065 | inactive: 0.117 | inactive: -0.027 | inactive: 0.026 | inactive: 0.049 | inactive: -0.013 | inactive: -0.038 | inactive: 0.003 | inactive: -0.062 | inactive: -0.024 | inactive: 0.035 | inactive: 0.035 | inactive: -0.124 | inactive: 0.013 | inactive: -0.084 |

Retrieved one by one from the list above (2):

| Target | log2 fold change (bafetinib) | log2 fold change [1] | log2 fold change (nilotinib) | log2 fold change [2] | log2 fold change (dasatinib) | log2 fold change [3] | log2 fold change [4] | log2 fold change [5] | log2 fold change (tipifarnib) | log2 fold change (mubritinib) | log2 fold change [6] | log2 fold change [7] | log2 fold change [8] | log2 fold change [9] | log2 fold change (entinostat) | log2 fold change (vorinostat) | log2 fold change (citarinostat) | log2 fold change (silmitasertib) | log2 fold change [10] | log2 fold change [11] |
| --- | --- | --- | --- | --- | --- | --- | --- | --- | --- | --- | --- | --- | --- | --- | --- | --- | --- | --- | --- | --- |
| ACAP2 (UniProt Q15057) | inactive: 0.093 | inactive: 0.052 | inactive: -0.006 | inactive: -0.05 | inactive: -0.04 | inactive: 0.051 | inactive: -0.073 | inactive: -0.051 | inactive: -0.097 | inactive: 0.016 | inactive: -0.016 | inactive: -0.075 | inactive: 0.026 | inactive: -0.035 | inactive: 0.005 | inactive: 0 | inactive: 0.029 | inactive: -0.007 | inactive: -0.078 | inactive: 0.045 |
| ABCC5 (UniProt O15440) | inactive: -0.027 | inactive: 0.068 | inactive: -0.21 | active: -0.219 | inactive: -0.035 | inactive: -0.015 | inactive: 0.017 | inactive: 0.053 | inactive: -0.009 | inactive: 0.124 | inactive: 0.016 | inactive: 0.088 | inactive: -0.038 | inactive: -0.005 | inactive: -0.017 | inactive: 0.001 | inactive: 0.114 | inactive: 0.008 | inactive: -0.082 | inactive: 0.12 |
